PubChem BioAssay AID602196 – INSERM, 2012
Screen: 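Modifiers of cisplatin sensitivity in A549 cells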. Cell system: human A549 lung cancer cells. Knock-down reagent: siRNA pair against human genes. Time to read-out: 48 h transfection before cisplatin; time from cisplatin to read-out not stated. Conditions: cisplatin at a dose killing half of control-siRNA cells; exact dose and duration not given. Measurement: 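Cisplatin cell death as a shift from the 50% death seen with control siRNA; siRNAs toxic or growth-blocking alone scored 0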. Reading the numbers: two-siRNA summed score (-2 to +2): higher = both siRNAs protect from cisplatin killing; -2 means both sensitise. Call rule: 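Each siRNA scores 0 if harmful alone by LDH or WST-1, otherwise +1 if it reduces and -1 if it increases cisplatin killing; a gene is active when both siRNAs agree (sum +2 or -2)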. Calls: active = both siRNAs shift cisplatin killing the same way; inactive = no consistent shift, or siRNA harmful alone.
The deposit covers about 23,000 reagents; shown is a random part of them. 455 of them (2%) were called active. 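Active includes both protection and sensitisation; some change values fall well beyond the stated -50 to +50 range.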 Further read-outs or replicates are left out here. The record does not give: the amount of reagent.

gene	two-siRNA summed score (-2 to +2)	Call
SART1 (GeneID 9092)	0	inactive
LOC390760 (retired record) (GeneID 390760)	0	inactive
RPL23 (GeneID 9349)	0	inactive
SPTAN1 (GeneID 6709)	0	inactive
SARAF (GeneID 51669)	0	inactive
SLC25A14 (GeneID 9016)	0	inactive
TPR (GeneID 7175)	0	inactive
IL1R2 (GeneID 7850)	-1	inactive
CMIP (GeneID 80790)	0	inactive
LOC440536	1	inactive
LOC440451	0	inactive
MAGEA8 (GeneID 4107)	1	inactive
CSHL1 (GeneID 1444)	0	inactive
LOC388460	0	inactive
GAB1 (GeneID 2549)	0	inactive
AP1AR (GeneID 55435)	0	inactive
STRADB (GeneID 55437)	0	inactive
WDR26 (GeneID 80232)	0	inactive
SLC30A9 (GeneID 10463)	0	inactive
NUPR1 (GeneID 26471)	0	inactive
BLCAP (GeneID 10904)	0	inactive
ABCC4 (GeneID 10257)	-1	inactive
ADGRL3 (GeneID 23284)	1	inactive
SFXN3 (GeneID 81855)	0	inactive
PARL (GeneID 55486)	0	inactive
HSPBAP1 (GeneID 79663)	0	inactive
TSC22D3 (GeneID 1831)	0	inactive
ZNF446 (GeneID 55663)	0	inactive
ZNF136 (GeneID 7695)	0	inactive
FBXO10 (GeneID 26267)	0	inactive
MRPS7 (GeneID 51081)	0	inactive
WWP1P1 (GeneID 339843)	1	inactive
IRX5 (GeneID 10265)	1	inactive
IQCK (GeneID 124152)	0	inactive
YJU2 (GeneID 55702)	-1	inactive
CIMAP1D (GeneID 284451)	0	inactive
LOC441834	0	inactive
MORF4L1 (GeneID 10933)	0	inactive
DUX5 (GeneID 26581)	0	inactive
CENPVL2 (GeneID 441495)	0	inactive
NID1 (GeneID 4811)	0	inactive
MPDU1 (GeneID 9526)	0	inactive
BAMBI (GeneID 25805)	0	inactive
MKNK2 (GeneID 2872)	1	inactive
LARP1B (GeneID 55132)	0	inactive
CSMD3 (GeneID 114788)	0	inactive
CRIPTO (GeneID 6997)	0	inactive
CATSPERH (GeneID 100130348)	0	inactive
LOC389703	0	inactive
SLC24A3 (GeneID 57419)	0	inactive
INO80B (GeneID 83444)	0	inactive
LOC442498	1	inactive
FBXL4 (GeneID 26235)	0	inactive
DOCK10 (GeneID 55619)	-1	inactive
GNL3 (GeneID 26354)	0	inactive
GAN (GeneID 8139)	0	inactive
GREM1 (GeneID 26585)	0	inactive

Individual results from the entries so far:
Under “Call”, GAB1 (GeneID 2549) shows inactive
Value of LOC388460 under “two-siRNA summed score (-2 to +2)”: 0
For “two-siRNA summed score (-2 to +2)”, INO80B (GeneID 83444) has 0
Under “Call”, MORF4L1 (GeneID 10933) has inactive
For “two-siRNA summed score (-2 to +2)”, LARP1B (GeneID 55132) shows 0
